No constants are given. Whether binding was seen depends on the method and setting. In cells and extracts the contact can be indirect. These calls come from enrichment with a bait or labelling near it, and not all partners need be listed.
B1: Endonuclease/exonuclease/phosphatase family protein TGME49_243590 (protein, UniProt S8FA35 1-1111)
chain: MQAHTATFDEFTCSHRHYVNRIRRDILGRGVLKVTLHEALHVDEILSLPRPMFLTSFSSPFFSGVLLCSLHLPLLGASLPLCPVCAPPRSSSQLLSFCSSRLLRASSSPGCVGGRPGRRSAPVAKTKPVFEFPPLTSASVPSLPFSSPSASSGKPIPRTVSSRSSPFCPAPLCRFFSSLPFAHPSSACVAPSVRSGSSLRPATFLLWSFCFSSRLAVRSRKCTVHCQLPLSLVPTVSLPGLSLVQSSRRPLCPFSVSPSAASFCLREYSSLSQRLFTSDSPKTFFHQLPRSSSNGSLIYSSLPSSASALLSSSPSPSSSPSSASSPSSSAVSGVRGGTQATLASCPSSFRKSENMERRSKLGDLLVTRAADGKLLLTFFWLGQRVNLERSEEEPLDRLLQRLRLSCRKVTQKRLAEETRKGKAARKQRKKAEESSPGAHAATEPVHNEEKKAAAIEDLPFIFLRRKDGTVAPGDEACGVSFQRASLICFSPFAPQGDAERTGKSELSPRDESADSENVLEVVWDPPVARCIYVPQAVYTGCPVLACVVTEHANEDDLVIEWRYEDSGVDGPVIHRGRHYTPKPADEGRVLILKAYHPLYSVFSVTNSLPPVLPCPSIDWHFERNNAFSPSSPSSLPSLSPAASSSVPSHPSVRAKSSKSLRVCSFNILAGAYARTPHAVQAMYPYCSGHHLDLHHRKALLGKELHALDGDIVALQECSSSLFFSFLAPLFKEEYHAFLQCKFKARVQEGCALLIRKKYFSVLREGSVIFQKELLTNPQYDELLAELRRKWPHFETDVLPHLTTVMQFAILRRRDTREAHDEKDLPKTLVVANTHLFFHPYARHIRVLQIYVMTNFLQTLREEFAESEDSSTAPAEPASFSASRRLPPVIMCGDFNCQPGSGGLKLLKKKAVHAYLDDWHDGLAFRWEKDEDAAAEDEEEKNGDEEAKSGIEMKKEDAPGTIVSPSLPETSPASSDSAVAFAAASESRNAEHEGKGPHEMESGIDHREAGGEQGTGEEPGVALRLPGDLDLVDCYEDSPLAFSNFVSGFQATLDYIYASSDFKVVARLPGVSEEAVRAHGGLPCHGYPSDHLAIAVDLQLKSTESPENSYTK
B2: Cell-cycle-associated protein kinase DYRK, putative (protein, UniProt S8F8Y6 1-1180)
chain: MASLPASDGREEEALAALRRVLHAWTGPEGEAGREARLLKNAAFLESLQQLVSQLACLHGAADRVGADGAFFADREERRETEGGSGVSFSDARVALNDLLSSNLPLSVVESHALVQDLLRRQQAGTGAVSAPKREAACFPLGRSEGEQGGVFGLGSASLEAPAAPPLLLPLPGSLLVSSPSARYCPKRPRHSQPVTSPSVDAAFLRSILAGDQQALSLHSESRSAQRGGAGATLNGGEPDGDEALKRDQCERWKAHVGGLFIPFFDADDEYRDDYDPGYRILDLAEAHYIHDCHTFRQNPVDLVGGLSACSRRPRLSAHLERIYSRRSAATVRGSRSVTEDRGDKSEERGPKAESELGPRGQDSPRFGAWGSGARRETAAFAGGPGTGGTGGGRSSPSFGFHGGDESRAGGPPDEAHMFEFSLDDEGDRDATAEMENKESSRESRAVSLEDELADCTVQVSSRFSGSKAPLPPVPGAARLDSKNDGASSSAKPGGESAPAEPFSPVQGDDPGASGRVEVSVGAPGDFSTLSAAEEDQLAAYEREMKLCEAWRERYCNGDPGAFRARQQAMRSACILSFEGSKDSEAQPQGGRLGPVLRPLYPKSDDAFYPVRIQPSSQRSSLREPRGTARGSEETEERLEETDDSGAESGPGGKAAAARTRPAGTGRGEDASEARPTHGEAKRGQEHSSLPRQPQQGRGTTAPAVIYDCFHLKVVFERGRTGFEDHRELVLPPGTLLAGRYEVEKEVGRAAFSRCLRCIDTVTNKQVCLKVIRNEKEYMDQSLDEVKTLRFLSANGDPDALHFLRLCDFFYHREHLVLVTELLSQNLYEFSSFFRKNHLPSFWTVGKIQRIARELLVALRFVHSLNVVHCDLKPENILLRPQAITDTRFYKCLSQQQPSAIVAEVFANCGRRNSADGRVAADAADRDASARKRNGVSASSGSDVSPFSLQLPCTQFGTSLSPQKDAPCAASLHAPVSVKLIDFGNSCLTSDPLITYVQSRSYRAPEVLLELPYDTKIDIWSLGCVLFELWTSVVLFMNDSVHSLLARIVGIIGQIPWYMVEKSPKKEELFDSDGFLYVVLPSENSEWKGDSKGKGTRSHEEEKEGRRDEGEREGKRESQGRMLRFLLPKRTSLRQRMRATDEVFIDFLEKMLIIDPAQRWDANRLLTHPFLDQHRYPDGL
B3: DDHD domain-containing protein TGME49_313600 (protein, UniProt S8G2U2 1-1483)
chain: MAFSWFFPQQASEGAPLTAVSSTATDEKPAGVLNKAVSVEASTKDFADARTAVFARGPRLLSRHHSASSRRRSKHVGPVQIEFDDDDEPHASFSYTRPPSQPIEHRSSSDSASGGSHAGQRGVDPRCARERERKNRERAASLERSSARSMCSGGEHVKTARFHVSARRERAAQRFNTVDDPENVDGDSHPQSPQRGVALKQETSVDQPHVGGKEPEDDADLVVGAKPFEFAFAGRRRRTLSHFPSRLGTLPSLRSFPLGSQSGEGRTLTASREGHRGFREGNPRVHPPESRRMDEGDSSDYSGVSPAELTPREGETSRSVQVSGDVFAETSARFHLPSEIKPSKRSISSLRQPLGNGLRGETESTASPDSSAPQNTHVTASQSRPPQILQGPLPASTGPPEKSSTASVGRHPLRTASARVSFAATAAERAAETRGHKAKDEEQRLSPSAGPSPRKSLAEGEARKMQTRERHRPRSPSSSASTRVSELDTARSSSSSTSLPPVAQEEGRHRSDDAKGTEETAEVETGPQKVRASSVSGRPPCEHILLVVHGIGCEAEGGAIHKQQFVKSLALVNEYWFWKKPVEVHVHAINWKQTVIHAQEHMFEHITLKDVYETRRMLTLTAADLLFFLTPRYGDFIMTQVAEQLNEAVAKLRAHPSERYKNSKISVLGYSLGSVMAYELLAGRPFRPSLFNPTTNPSPRLNFHVDSLFLLGSALPAFLLLHAPEILKQGMWLPKDLRLYNIFHPCDPVAFRLEKLVYPQIRQLPPPVLLAFWRTNGVQKWYEWDMNVQHAKNVLMQNITDFASTISNSLFFWWNPEKGNPNPEGISVLDSNASAASAALEEAKKTRTGLLSSSFSSSSLVGPLVQKSKAGQRDADGLRDGDTRNGGKRGGSAETPGRGAGGDGASRTHRRVLDSARSSSAKLGDENTKQLPLRPADMCAFRMRLKQTLPHVLRRHRAAESSEDEDVSLPAGSRLLPRLPPLPSLGSSLSSSLASADLSSSASSQLDVSPRSSSAASSTASAEETPHSPSSPNASEREQNDSRVESRSKDADTCMHPSPRAAVQLYAGAARETASGDLEKAKSGDASSPGERENQRAALTKRGSELSATGGALPERDAETGKDRSGNRRVSKKEGDADSKPKREEDKGGRTRPRGEEEEGDGDQNIWHLLYRSNSKEKPEDGAVSDVTTSSAGSGAFALEQLEQLEQETSRAMAQLETINEQTGPDILPVRVDFQLQEDTAEHFLSSLAMLQSHFNYWKLKDVAFFILKCLTGTNPTLSYTGHLKQLECAARKAAAKAERESNEVERRRQLKLAAALHRRLDSFNGTSEGTETSRKSRQPHAKHGSSPQGGTLGKRHSLAGSENYGREKSKHRQSVPGGGAIEVSSDGESHCSADRKGSSSAESERDISTESGSSKAQSTYRSRHSEAKANGGNYSTDSSSAESMPRAGQESEKSARKRHLEKRQQRANERLSTHRTVTKSFK
B4: Uncharacterized protein TGME49_206540 (protein, UniProt S8F8P1 1-1255)
chain: MALPSTPAVDRSVLPLNGLSPVQEESSSGPFPVDSCDRVFGLPTNSFASVLRRVSSFASQPALSLPSAFFSPSLRGSPSHSSTPAAASFRQAALCCVSTGCYIFLLGASLQPSVFPLFLLDQADDAGQLTSADAVSVSSPPSSLLPLCVALFCSCAPFALLFPLAVVWLFNAACAGLAALHLRRKQGGVVVAATLLDVRFPRSSRSAAEEPGSPDAACLALPPLWAKEASKFAWTDETGGPPVLRDNHDRRDVSLVSASTEGGLASMYAPPDVNQQTQRMSSDYFAKPSSSSSASSSSSSSSSSSSSSSSSSSSRQPEFVVRSRESPLTLAAAAPPDAKSRDEAIRLAGVSSKRRADGEGEREFRDSPSSRRGEEGRATEGANECHPLVQLTTSFEGSTVPPGDRGPSFFGQGNGCSVSSLVRSRQGSVVGVDSLASLSESDFDGASLLVSLGVPSQHSPGSRELRPGRANCGDKLNFKRSSRRRASREDSEPRVPEPPGLVFLRFCWTAAAAGARRFSRHLASWCRCFSRTVSGPLARRLVSLSGVSLAVCGSVFACLHELLLLLAFRVEGAKRVEMWTALASVSYAELPFLLLVGSCLRWWRPCLSCSRTLGVSLLLCANVLLCFSPLSLSPLPRASVADLARLLSNSSASLTSFTSSPFAGRLPASPLSSSISDDAFFLPRAPTAISESPLPSSLWNYEFQSSPSAGFTLTSAAGLAISRDGTSLTSTLPPPSSFSLRSSPLTVSSVSSSSSPSSSQSSSLSSSPSAPVSSSSPPPSPVSSSPPPSPVSSSSTPSSPVSSSFSISPSSPFPSVSSPASSVSSLSSSSSVAMPEKSSSSSPDSLLDSGKSPRGAIVPPATLPSPEALTTDFVEAYDWQKNEKTKSRISSPETSEAAPGLKPSRKNGEKRRDGEASSHSQLATKKDSGTGPAEMHAAAMLFALGALFASLVSSLSLALAIHTGLSVLTACILRFFTQGVMGCLGIVYGVAWGHWVDREGLASAMPPSSPLAAAAACVGACIFGLLATVSFFKSASLPVLPLSSGIRGGCWAIVALLALGLHHAPLPRPVVLLLLLALTGSLLFGWSCMRMEFSIANTPAPDEAGESTPRIFRLPASDKAFATSLCEGLLPAKGAASERDRRGSAERSTRADGGRETGDWDRDESPGWYRRGRAEEHRESVGEQYCAHEDDSIGPLPARCDTCGEDLQVEALLERSRSRVPVGYSGEFGRFDVLGESVGCEAVESECRVCAHDDQ
B5: Aminotransferase, putative (TGME49_264030) (protein, UniProt S8F550 1-636)
chain: MQFFHLFDSLNSPFVCAYRKRFFIGVFGRSQFVSTKQHFSMMPKFVRGRAAPMPETLEGVNSSCPAKTSNGSLPQSVAPAPSNPVNAENPPPQSAIATMETHCRENGSGTLLHRHRSHLADDVDMENRHRLSRQPTLSMCSLPERVVECKYAVRGVTVRRALELQEQLTKSPNCLNFKKLIFANIGDPQALGQRPISFYRQVMACVMYPPLVGLPLGCNRVELADIEPKNGQNTSFEENNSSSEEHTLFALDIVAKSRRYLQAMGSVGAYTHSQGHPLFRKDIAAWLTDRDGVATDPDTIFLTDGASSGIRLVLELLLRERSDGLLIPVPQYPLYAGLIVRLGGRVVPYYLEEETGWSFSLSAVREAMQDAKRKGICVRGIVVINPGNPTGTVLTEKEIREIINFCDTERLVLLADEVYQDNVYGNVPFISARKVLHQMDANVSLFSFHSSSKGLVGECGLRGGLLHVDTITEDVRLQMYKLVSMFMCGNTLGQLAITCVCTPPKPGDASYERFQRERLAIYDSMKSKAHLVYDQLNQIEGVSCQPIAGAVFGFPQIRIPPGALREAKKKGVEADLLFCLELLEATGIVTVPGSGFGQKHGTYHIRICILPPKHVLVDMLEKLKEFYAMFVKKYSE

Each binder was assayed against FLAG-BirA*-MOB1 (Toxoplasma gondii MOB1 fused to the C-terminal end of FLAG-BirA*) (Toxoplasma gondii) (assay: proximity labelling; BioID: FLAG-BirA*-MOB1 (control: FLAG-BirA*) tachyzoites in HFF cells, 150 µM biotin for 56 h; lysate in sucrose-based lysis buffer on agarose-streptavidin beads overnight at 18 °C; nanoLC-MS/MS; three biological replicates).

Binder	binding
B1	binds
B2	binds
B3	binds
B4	binds
B5	binds

From publication PMC8698288
